# Laboratory results: PubChem BioAssay AID256 (DTP/NCI, 2004)
# The list shows only some results of the screen, not a fair sample: it gathers tests that were run many times, whatever their T/C, doses with no T/C, and many T/C values between a quarter and a half above the control. Further doses and runs are listed elsewhere. T/C gives the treated animals as a percentage of the vehicle group. Some entries give survivors of the animals treated and no T/C: the source files T/C as zero there, which appears to mark a toxic dose or a test without result, not a measured value. Some survivor counts are full or nearly so, which does not show that the dose was tolerated: the source hardly ever lists a survival T/C far under the control, and the zero likely stands for such cases as well. Counts of survivors are from the toxicity check (mostly the fifth day) where no day follows; animals may have died later. Schedules are NCI's codes, taken here to give the interval after Q, in days (D) or hours (H), and the number of doses after X. Some molecules as drawn cover several salts, stereoisomers or complexes of the source; a dose is that of the sample tested. Some doses were run more than once; their values stand side by side, smallest first. For survival time, the PubChem record calls one and a half times the control and up active, and a quarter to a half above the control has no call in these data; cut-offs in other NCI protocols can differ. Some T/C values carry the count of animals alive at the toxicity check (mostly the fifth day); without a count, all were alive then. Marks such as (2×) count equal records among those shown.
# Tested on: CD2F1 mice, L1210 leukemia ip, survival T/C
# Test: NCI In Vivo Anticancer Drug Screen. Data for tumor model L1210 Leukemia (intraperitoneal) in CD2F1 (CDF1) mice
# Conditions: higher T/C = longer survival
# Summary of the method: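 In this screen, transplantable tumors were grown in mice given either the compound or its vehicle. Results were expressed as the treated measurement relative to the control measurement.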
# [1] = T/C endpoint: mean survival time, dose: 400.0 mg/kg/injection, schedule: Q04DX003 (ip), vehicle: saline with Tween-80
# [2] = T/C endpoint: mean survival time, dose: 200.0 mg/kg/injection, schedule: Q01DX009 (ip), vehicle: saline
# [3] = T/C endpoint: mean survival time, dose: 10.0 mg/kg/injection, schedule: Q01DX009 (ip), vehicle: saline
# [4] = T/C endpoint: mean survival time, dose: 400.0 mg/kg/injection, schedule: Q01DX009 (ip), vehicle: saline
# [5] = T/C endpoint: mean survival time, dose: 50.0 mg/kg/injection, schedule: Q01DX009 (ip), vehicle: saline with Tween-80
# [6] = T/C endpoint: mean survival time, dose: 100.0 mg/kg/injection, schedule: Q04DX002 (ip), vehicle: saline with Tween-80
# [7] = T/C endpoint: mean survival time, dose: 200.0 mg/kg/injection, schedule: Q04DX002 (ip), vehicle: saline with Tween-80
# [8] = T/C endpoint: mean survival time, dose: 400.0 mg/kg/injection, schedule: Q04DX002 (ip), vehicle: saline with Tween-80
smiles,measurement,setting,value
CO[C@H](/C(C)=C/C=C/C(C)=C/c1coc(C)n1)[C@H](C)[C@H]1C[C@@H](O)[C@@]2(C)O[C@H]2/C=C/[C@@H](C)[C@@H]2C[C@@H](CC(=O)O2)C[C@H]2O[C@@H]2C(=O)O1,T/C,"T/C endpoint: median survival time, dose: 0.25 mg/kg/injection, schedule: Q01DX009 (ip), vehicle: Klucel (hydroxypropylcellulose) (HPC)",132 % of control
same,survivor count,"T/C endpoint: median survival time, dose: 1.0 mg/kg/injection, schedule: Q01DX009 (ip), vehicle: Klucel (hydroxypropylcellulose) (HPC)",6 of 6
same,survivor count,"T/C endpoint: median survival time, dose: 2.0 mg/kg/injection, schedule: Q01DX009 (ip), vehicle: Klucel (hydroxypropylcellulose) (HPC)",1 of 6
same,survivor count,"T/C endpoint: median survival time, dose: 4.0 mg/kg/injection, schedule: Q01DX009 (ip), vehicle: Klucel (hydroxypropylcellulose) (HPC)",0 of 6
same,T/C,"T/C endpoint: median survival time, dose: 80.0 micrograms/kg/injection, schedule: Q01DX009 (ip), vehicle: Klucel (hydroxypropylcellulose) (HPC)",126 % of control
same,T/C,"T/C endpoint: median survival time, dose: 160.0 micrograms/kg/injection, schedule: Q01DX009 (ip), vehicle: Klucel (hydroxypropylcellulose) (HPC)",146 % of control
same,T/C,"T/C endpoint: median survival time, dose: 320.0 micrograms/kg/injection, schedule: Q01DX009 (ip), vehicle: Klucel (hydroxypropylcellulose) (HPC)",138 % of control
same,T/C,"T/C endpoint: median survival time, dose: 640.0 micrograms/kg/injection, schedule: Q01DX009 (ip), vehicle: Klucel (hydroxypropylcellulose) (HPC)",134 % of control
CNc1ncnc2c(C3OC(CO)C(O)C3O)[nH]nc12 (stereo unspecified),survivor count,"T/C endpoint: mean survival time, dose: 200.0 mg/kg/injection, schedule: Q01DX005 (ip), vehicle: water",1 of 6
same,survivor count,"T/C endpoint: mean survival time, dose: 400.0 mg/kg/injection, schedule: Q01DX005 (ip), vehicle: water",1 of 6
CC1C=CC(C(=O)Nc2ccc(Cl)c(Cl)c2)N1C (stereo unspecified),survivor count,[1],5 of 6
C1CNCOC1,T/C,[2],130 % of control
same,survivor count,"T/C endpoint: median survival time, dose: 200.0 mg/kg/injection, schedule: Q01DX009 (ip), vehicle: saline",1 of 6
CC(C)CC(NC(=O)CF)C(=O)O (stereo unspecified),T/C,[3],132 % of control [5 of 6 alive]
same,survivor count,[3],0 of 6
Cn1ccc(CON)n1,survivor count,[4],1 of 6
CN(C)C(=S)NN,survivor count,"T/C endpoint: mean survival time, dose: 12.5 mg/kg/injection, schedule: Q01DX001 (ip), vehicle: saline",3 of 6
same,survivor count,"T/C endpoint: mean survival time, dose: 25.0 mg/kg/injection, schedule: Q01DX001 (ip), vehicle: saline",0 of 6
same,survivor count,"T/C endpoint: mean survival time, dose: 50.0 mg/kg/injection, schedule: Q01DX001 (ip), vehicle: saline",0 of 6
O=C(NCCCCCCCCNC(=O)N1CC1)N1CC1,survivor count,"T/C endpoint: mean survival time, dose: 17.0 mg/kg/injection, schedule: Q01DX001 (ip), vehicle: carboxymethylcellulose (CMC)",1 of 6
same,survivor count,"T/C endpoint: mean survival time, dose: 25.5 mg/kg/injection, schedule: Q01DX001 (ip), vehicle: carboxymethylcellulose (CMC)",1 of 6
Nc1ccc(SCCCc2c(N)nc(N)nc2N)cc1,survivor count,"T/C endpoint: mean survival time, dose: 400.0 mg/kg/injection, schedule: Q01DX001 (ip), vehicle: other",1 of 3
COc1nc(N)nc2c1nnn2C1OC(CO)C(O)C1O (stereo unspecified),T/C,"T/C endpoint: mean survival time, dose: 12.5 mg/kg/injection, schedule: Q01DX009 (ip), vehicle: Klucel (hydroxypropylcellulose) (HPC)",141 % of control
same,T/C,"T/C endpoint: mean survival time, dose: 25.0 mg/kg/injection, schedule: Q01DX009 (ip), vehicle: Klucel (hydroxypropylcellulose) (HPC)",141 % of control
C=C(C)[C@H]1CN[C@H](C(=O)O)[C@H]1CC(=O)O,survivor count,"T/C endpoint: mean survival time, dose: 10.0 mg/kg/injection, schedule: Q01DX001 (ip), vehicle: saline",2 of 6
same,survivor count,"T/C endpoint: mean survival time, dose: 20.0 mg/kg/injection, schedule: Q01DX001 (ip), vehicle: saline",1 of 6
same,survivor count,"T/C endpoint: mean survival time, dose: 40.0 mg/kg/injection, schedule: Q01DX001 (ip), vehicle: saline",1 of 6
same,survivor count,"T/C endpoint: mean survival time, dose: 80.0 mg/kg/injection, schedule: Q01DX001 (ip), vehicle: saline",0 of 6
same,survivor count,"T/C endpoint: median survival time, dose: 100.0 mg/kg/injection, schedule: Q01DX009 (ip), vehicle: saline",0 of 6
CCCCCCCCCCCCCCCCCCN1CCCN(CCCCCCCCCCCCCCCCCC)CC1,T/C,[5],"98, 103, 105, 122, 124 % of control"
same,survivor count,[5],3 of 6
same,T/C,"T/C endpoint: mean survival time, dose: 100.0 mg/kg/injection, schedule: Q01DX009 (ip), vehicle: saline with Tween-80","102, 103, 104 [5 of 6 alive], 111 [5 of 6 alive], 113, 122 % of control [2 of 3 alive]"
same,T/C,[6],90 and 95 % of control
same,survivor count,[6],3 of 3 and 6 of 6
same,survivor count,"T/C endpoint: mean survival time, dose: 200.0 mg/kg/injection, schedule: Q01DX009 (ip), vehicle: saline with Tween-80","0 of 3, 0 of 6, 1 of 6, 3 of 6, 2 of 3"
same,T/C,[7],"98, 103, 104 % of control (2×)"
same,survivor count,"T/C endpoint: mean survival time, dose: 400.0 mg/kg/injection, schedule: Q04DX002 (ip), vehicle: other",3 of 3
same,survivor count,[8],0 of 6 and 1 of 3
CN(C)C(=S)NNC(=O)c1ccc(Cl)cc1,survivor count,"T/C endpoint: mean survival time, dose: 50.0 mg/kg/injection, schedule: Q01DX001 (ip), vehicle: saline with Tween-80",2 of 6
same,survivor count,"T/C endpoint: mean survival time, dose: 100.0 mg/kg/injection, schedule: Q01DX001 (ip), vehicle: saline with Tween-80",0 of 6
Cc1cc(O)c2c(c1O)C(=O)c1cccc(O)c1C2=O,survivor count,"T/C endpoint: mean survival time, dose: 12.0 mg/kg/injection, schedule: Q01DX009 (ip), vehicle: Klucel (hydroxypropylcellulose) (HPC)",3 of 6
C(=N\N=C\c1ccco1)/c1ccco1,survivor count,[1],1 of 6
O=[N+]([O-])c1ccc(N(CCO)CCO)c2c1no[n+]2[O-],survivor count,"T/C endpoint: median survival time, dose: 100.0 mg/kg/injection, schedule: Q01DX009 (ip), vehicle: saline with Tween-80",3 of 6
same,survivor count,"T/C endpoint: median survival time, dose: 200.0 mg/kg/injection, schedule: Q01DX009 (ip), vehicle: saline with Tween-80",0 of 6
C=CCOc1c(C)cc(C)cc1/C=C/C,survivor count,"T/C endpoint: mean survival time, dose: 400.0 mg/kg/injection, schedule: Q01DX009 (ip), vehicle: saline with Tween-80",1 of 6
CCCC(=O)OCC1OC(n2ccc(O)cc2=O)C(O)C1O (stereo unspecified),T/C,"T/C endpoint: median survival time, dose: 225.0 mg/kg/injection, schedule: Q01DX009 (ip), vehicle: saline + Tween-80 + alcohol",137 % of control
Nc1nc(Cl)nc2c1ncn2C1OC(CO)C(O)C1O (stereo unspecified),survivor count,[6],0 of 3
same,survivor count,[2],2 of 6
same,survivor count,[7],0 of 3
same,survivor count,[4],0 of 6
same,survivor count,[8],0 of 3
